From PubChem BioAssay AID493014 (National Center for Advancing Translational Sciences (NCATS), 2011)
Hit rate of the full screen: of about 340,000 compounds, about 170 (0.05%) were called active. The shares of active, inactive and inconclusive entries below differ from those in the screen. The call rests on the fitted dose curve; in most records, active means well fitted inhibition curve with a large enough effect in the signal ratio, with a control signal flat (not every such curve was filed as active); inconclusive means small, poorly fitted or top-dose-only effect, or effect the other way, or a change in a side signal; inactive means flat fitted curve, though single readings scatter; the % refers to the signal ratio. Potencies beside an inconclusive call are fits to weak or partial responses and may not hold up.

Assay: qHTS Assay to Find Inhibitors of Chronic Active B-Cell Receptor Signaling;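 on activity change, negative = inhibition: plate controls were basal doxycycline-induced cells for no effect and cells given 10 µM MG132 for full effect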
Conditions: ABC-DLBCL IkBa-CBG/CBR reporter, luminescence ratio (green luciferase fused to IkBa over red control in TMD8 lymphoma cells), 4 h; activity change, negative = inhibition: at 46.1 µM (top of the series)
How it was run: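 Cell line TMD8 (human ABC DLBCL), stably expressing tet-inducible CBG68-IkBa fusion and CBR; IMDM/0.5% FBS; cpd up to 46 uM; dox induction, 4 h, 37C/5% CO2; dual luminescence; green/red ratio; MG132 control.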
Potency means the concentration at half of the fitted maximal effect.

SMILES | activity change, negative = inhibition | Potency
O=C(OCC1O[C@@H](OC(=O)c2cc(O)c(O)c(O)c2)[C@@H](OC(=O)c2cc(O)c(O)c(O)c2)[C@@H](OC(=O)c2cc(O)c(O)c(O)c2)[C@@H]1OC(=O)c1cc(O)c(O)c(O)c1)c1cc(O)c(O)c(O)c1 (stereo not given in full) | inconclusive: -12.6% | –
COc1cccc(C(=O)CSc2nnc(-c3cc(OC)c(OC)c(OC)c3)o2)c1 | inactive | –
C=C(Cl)COc1ccc2c(CCC)cc(=O)oc2c1 | inconclusive: 8.01% | –
CSCCC(NC(=O)COc1ccccc1)C(=O)OCc1ccc([N+](=O)[O-])cc1 (stereo not given) | inactive | –
Oc1ccc(C[C@@H]2CNCCN2CCc2cc(C(F)(F)F)cc(C(F)(F)F)c2)cc1 | – | inconclusive: 20.6 µM [falling, partial curve, poor fit]
COC(=O)C1=C(CCc2ccccc2)NC(=O)NC1c1ccc(Br)cc1 (stereo not given) | inconclusive: 0.527% | –
CCCCCCN1CC(O)=C(c2ccccc2)C1=N | inconclusive: 11% | –
CC1CCN(C(=O)c2ccc(NC(=O)c3cccs3)cc2)CC1 | inconclusive: 7.42% | –
CC(NC(=O)c1noc2c1CCCCC2)c1ccccc1 (stereo not given) | inconclusive: -4.76% | –
NS(=O)(=O)c1ccc(CCNC(=O)C(=O)NCC2OCCN2S(=O)(=O)c2ccc(Cl)cc2)cc1 (stereo not given) | inactive | –
COc1ccc(N=C2SC(C(N)=O)CC(=O)N2Cc2ccc3c(c2)OCO3)cc1 (stereo not given) | – | inconclusive: 10 µM [falling, partial curve, poor fit]
Cc1ccc(-n2c(-c3ccc(Cl)cc3)n[nH]c2=S)c(C)c1 | inconclusive: 4.5% | –
CC1CCN(C(NC(=O)c2ccco2)C(=O)c2ccccc2)CC1 (stereo not given) | – | inconclusive: 1.41 µM [rising, partial curve, poor fit]
COc1ccccc1NC(=S)NC(C)=O | – | inconclusive: 20 µM [falling, partial curve]
C[C@]12c3[nH]c4ccc(Cl)cc4c3CCN1C(=O)[C@@H](CC(=O)NCCc1ccccn1)C[C@@H]2C(=O)N1CCCCC1 | inconclusive: -1.49% | –
CCC(=O)N1CCN(c2ccc(NC(=O)c3ccc([N+](=O)[O-])o3)cc2)CC1 | – | inconclusive: 2.51 µM [falling, full curve, poor fit]
Cc1ccc(NC(=O)CCCCCC2NC(=O)NC2C)cc1 (stereo not given) | inconclusive: 6.22% | –
Cc1cc(C)n(-c2ccccc2C#N)n1 | inactive | –
Cc1ccc(S(=O)(=O)N(C(=O)c2ccncc2)c2ccc(OC(=O)c3ccncc3)c3ccccc23)cc1 | – | inconclusive: 23.1 µM [falling, single point]
COc1ccccc1NC(=O)CSc1nnc2ccc(-c3cccnc3)nn12 | – | inconclusive: 15.8 µM [falling, single point]
COc1cc2c(C#CCCO)c(-c3ccc(C#N)cc3)oc(=O)c2cc1OC | inactive | –
O=C(NC(Cc1ccccc1)C(=O)NCCc1ccccn1)c1ccccc1 (stereo not given) | inconclusive: 3.75% | –
COc1ccc(S(=O)(=O)N(CCC#N)Cc2ccco2)cc1OC | inconclusive: -4.48% | –
O=C(CN1CCN(Cc2ccc3c(c2)OCO3)CC1)Nc1ccc(F)cc1 | – | inconclusive: 23.1 µM [falling, single point]
COc1cc(-c2cc(N3C(=O)Nc4ccccc4N3O)n[nH]2)cc(OC)c1OC | inconclusive: -5.6% | –
O=C(COc1ccc(Cl)cc1)NCc1nnc(SCC(=O)NCC2CCCO2)o1 (stereo not given) | inconclusive: -2.42% | –
COc1ccc(C2=C(C=C(C#N)C#N)C(c3ccccc3C)c3ccccc3O2)cc1OC (stereo not given) | inactive | –

Some of the entries so far, with tabs.
SMILES	activity change, negative = inhibition	Potency
NS(=O)(=O)c1ccc(CCNC(=O)C(=O)NCC2OCCN2S(=O)(=O)c2ccc(Cl)cc2)cc1 (stereo not given)	inactive	–
C[C@]12c3[nH]c4ccc(Cl)cc4c3CCN1C(=O)[C@@H](CC(=O)NCCc1ccccn1)C[C@@H]2C(=O)N1CCCCC1	inconclusive: -1.49%	–
CCC(=O)N1CCN(c2ccc(NC(=O)c3ccc([N+](=O)[O-])o3)cc2)CC1	–	inconclusive: 2.51 µM [falling, full curve, poor fit]
Cc1ccc(NC(=O)CCCCCC2NC(=O)NC2C)cc1 (stereo not given)	inconclusive: 6.22%	–
O=C(COc1ccc(Cl)cc1)NCc1nnc(SCC(=O)NCC2CCCO2)o1 (stereo not given)	inconclusive: -2.42%	–

Remaining list, next part:

SMILES | activity change, negative = inhibition | Potency
CCOc1ccccc1CNC(=O)c1cc2occc2n1C | inactive | –
O=C(CSc1nnc(-c2ccccc2)c2ccccc12)NCCN1C(=O)CSC1=O | inactive | –
COc1cccc(N=Cc2c(O)n(-c3cccc(C)n3)c(=O)c3ccccc23)c1 | inconclusive: 23.3% | –
O=C(Nc1cccc(-c2cn3cccnc3n2)c1)c1ccco1 | – | inconclusive: 14.1 µM [falling, partial curve, poor fit]
CCCc1ccc(-c2cc(N)n[nH]2)cc1 | inconclusive: -18.9% | –
CC(CC(=O)Nc1cc(S(=O)(=O)N2CCOCC2)ccc1OCC(F)(F)F)c1ccccc1 (stereo not given) | inconclusive: -0.896% | –
O=C(/C=C/c1ccco1)N1CCN(c2ncccn2)CC1 | inconclusive: -0.178% | –
Cc1onc(-c2ccccc2Cl)c1C(=O)Nc1ccc(S(=O)(=O)Nc2nccs2)cc1 | – | inconclusive: 12.6 µM [falling, partial curve]
Cc1ccc(S(=O)(=O)N(C)CC(=O)N2CCN(C(=O)c3ccco3)CC2)cc1 | inactive | –
COc1cc(C(C(=O)NC2CCCCC2)N(CCN2CCOCC2)C(=O)C2COc3ccccc3O2)cc(OC)c1OC (stereo not given) | inconclusive: 17% | –
C/C(=N\NC(=O)c1n[nH]c2c1CCC2)c1cccs1 | – | inconclusive: 31.6 µM [cytotoxic, single point]
Cc1ccc(-c2nnn(CC(=O)O)n2)cc1 | inconclusive: 6.56% | –
CC1C(=O)Nc2ccccc2N1C(=O)c1cccc(C(F)(F)F)c1 (stereo not given) | inactive | –
COc1ccc(OC)c(CN2CCN(Cc3cccc4ccccc34)CC2)c1 | inactive | –
CCN1C(=O)S/C(=C/c2cn(C)c3ccccc23)C1=O | inconclusive: 11.1% | –
O/N=C/c1cn(-c2ccccc2)nc1-c1ccc2c(c1)OCCO2 | inconclusive: 0.64% | –
O=C(CCCSc1nnc(SCCCC(=O)c2ccc(F)cc2)s1)c1ccc(F)cc1 | inactive | –
O=C(COc1ccc(F)cc1Cl)Nc1cc(S(=O)(=O)N2CCOCC2)ccc1N1CCCCC1 | inactive | –
Cc1ccc(C)c2c1[nH]c1ccccc12 | – | inconclusive: 6.51 µM [falling, partial curve, poor fit]
Cc1ccc(C)c(S(=O)(=O)Nc2ccc3cn[nH]c3c2)c1 | inactive | –
CCOc1ccc(OCc2ccc(C(=O)NN)o2)cc1 | – | inconclusive: 7.94 µM [falling, partial curve, poor fit]
CC(=O)c1cc2c(cc1NC(=O)CCC1CCCC1)OCO2 | inconclusive: 12.3% | –
Cc1nc2ccc(NS(=O)(=O)c3ccc(F)cc3F)cc2s1 | inactive | –
COCc1c(N)c(C)nc(Cl)c1C#N | – | inconclusive: 35.5 µM [falling, single point]
Cn1c(SCC(=O)c2ccc(F)cc2)nnc1-c1ccccc1N | inconclusive: 2.74% | –
O=C(Nc1ccccc1)C(=O)Nc1ccccn1 | inconclusive: 176% | –
O=C(OCC(=O)N1CCc2ccccc21)c1ccccn1 | – | inconclusive: 35.5 µM [falling, single point]

SMILES | activity change, negative = inhibition | Potency
Clc1ccc(Sc2cc(N3CCOCC3)nc(-c3ccccc3)n2)cc1 | inconclusive: 14.1% | –
CCCCCc1ccc(-c2ccc(/C=C/C(=O)O)cc2)nc1 | – | inconclusive: 23.1 µM [falling, partial curve]
O=C(NCC1CCCN(C(=O)c2cscn2)C1)c1ccc(-c2ccccc2)cc1 (stereo not given) | – | inconclusive: 12.6 µM [rising, partial curve, poor fit]
COc1cc(C(=O)COC(=O)c2cccs2)cc(OC)c1OC | inconclusive: -23.1% | –
O=C(N/N=C\c1cc2c(cc1Cl)OCO2)c1cccs1 | – | inconclusive: 15.8 µM [falling, single point]
CCOC(=O)c1c(P(=O)(N2CCOCC2)N2CCOCC2)noc1N | inactive | –
COc1ccc(C(=O)Nc2ccccc2C(=O)Nc2ccc(C(=O)O)cc2)cc1 | inconclusive: 3.96% | –
CC1=C(C(=O)Nc2ccc(C(=O)N3CCN(c4cccc(Cl)c4)CC3)cc2)SCCO1 | inconclusive: 2.62% | –
Cc1nsc2nc3c(F)c(F)c(F)c(F)c3cc12 | inconclusive: 8.13% | –
CN(C)S(=O)(=O)c1ccc(Cl)c(NC(=O)COC(=O)CCC(=O)c2cccs2)c1 | inconclusive: 9.79% | –
COc1cccc(-c2csc(N3CCN(C(=O)NC45CC6CC(CC(C6)C4)C5)CC3)n2)c1 | inconclusive: 12.2% | –
CC(C)CCNC(=O)C1CC(c2ccccc2C(F)(F)F)=NO1 (stereo not given) | inactive | –
COc1ccccc1NC(=O)CN1CCC(c2nc3ccc(C)cc3[nH]2)CC1 | inconclusive: 1.68% | –
CCOC(=O)C(=NC(C)CC)NNc1cccc(C(F)(F)F)c1 (stereo not given) | inconclusive: -0.276% | –
Cc1cc(=O)oc2c(C)c3occc3cc12 | inactive | –
Cc1nn(-c2ccccc2)c2c1c(C)c(CCC(=O)N1CCOCC1)c(=O)n2C | inactive | –
CCOc1ccc(NC(=O)c2nc(SCC)ncc2Cl)cc1 | inconclusive: 2.35% | –
C=CCSc1nnc(NC(=O)c2c(CC)noc2C)s1 | – | inconclusive: 25.9 µM [falling, single point]
Cc1nc2cc(NCc3nc4ccccc4n3Cc3ccccc3)ccc2n1C | inconclusive: -11% | –
O=[N+]([O-])c1ccc(-c2nc(-c3cccs3)c(-c3cccs3)[nH]2)cc1 | inconclusive: 13.1% | –
O=C(Nc1ccc(Oc2ccccc2)cc1)c1ccc(F)c(S(=O)(=O)N2CCN(c3ccccc3F)CC2)c1 | inactive | –
COc1ccc(C/C(N)=N/OC(=O)c2cccc([N+](=O)[O-])c2)cc1 | inconclusive: 4.37% | –
CN(C(=O)Nc1ccccc1)C1CCCCC1 | inconclusive: 5.56% | –
Cc1c(C(=O)C(=O)NCC2CCCO2)c2ccccc2n1C (stereo not given) | inconclusive: 7.88% | –
CCOC(=O)c1sc2nc(CC(=O)OC)nc(N3CCN(c4ccc(OC)cc4)CC3)c2c1C | – | inconclusive: 9.2 µM [rising, partial curve, poor fit]
Cc1cc(C)c2nc(N3CCCC(C(=O)N4CCN(c5ncccn5)CC4)C3)sc2c1 (stereo not given) | inactive | –
